Measurements from article PMC11445549.
These are yes or no findings as the source states them, for the method shown. Binding seen in cells or lysates may run through a third protein. Some results given as binding are weak or reduced against the parent protein; the word gives no strength. Sequences can lack the tags named with a protein.

Sequences of proteins named here, by UniProt entry; tags and fusion partners are left off.
UniProt P19474: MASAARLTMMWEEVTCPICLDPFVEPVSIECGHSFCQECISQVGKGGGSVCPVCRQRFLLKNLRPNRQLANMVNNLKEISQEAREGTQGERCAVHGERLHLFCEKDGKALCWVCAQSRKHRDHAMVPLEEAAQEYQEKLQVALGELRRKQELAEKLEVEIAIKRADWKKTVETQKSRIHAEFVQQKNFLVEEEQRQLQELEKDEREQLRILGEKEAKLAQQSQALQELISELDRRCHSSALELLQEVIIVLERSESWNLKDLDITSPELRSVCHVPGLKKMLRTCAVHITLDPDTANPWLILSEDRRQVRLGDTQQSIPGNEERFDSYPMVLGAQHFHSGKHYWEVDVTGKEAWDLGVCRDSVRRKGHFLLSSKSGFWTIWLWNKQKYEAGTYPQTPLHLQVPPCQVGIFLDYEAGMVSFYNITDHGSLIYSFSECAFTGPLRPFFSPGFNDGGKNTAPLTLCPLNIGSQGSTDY

Tests used:
[1] = target: T1, Flag-EPDR1 (ependymin-related protein 1) (UniProt Q9UM22); experiment: co-IP; HEK293T cells transfected with a Flag-tagged and an HA-tagged protein; lysates (1% NP-40 IP buffer) immunoprecipitated with anti-Flag, blotted for HA
T1 sequence: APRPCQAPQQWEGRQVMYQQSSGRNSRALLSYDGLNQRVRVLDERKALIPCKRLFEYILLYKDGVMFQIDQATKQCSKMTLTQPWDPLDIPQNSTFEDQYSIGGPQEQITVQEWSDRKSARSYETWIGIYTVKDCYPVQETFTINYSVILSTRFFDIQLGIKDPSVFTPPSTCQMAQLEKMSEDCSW

Flag-IKBKB = target: T2, Flag-IKBKB (UniProt O14920); experiment: as above
T2 sequence: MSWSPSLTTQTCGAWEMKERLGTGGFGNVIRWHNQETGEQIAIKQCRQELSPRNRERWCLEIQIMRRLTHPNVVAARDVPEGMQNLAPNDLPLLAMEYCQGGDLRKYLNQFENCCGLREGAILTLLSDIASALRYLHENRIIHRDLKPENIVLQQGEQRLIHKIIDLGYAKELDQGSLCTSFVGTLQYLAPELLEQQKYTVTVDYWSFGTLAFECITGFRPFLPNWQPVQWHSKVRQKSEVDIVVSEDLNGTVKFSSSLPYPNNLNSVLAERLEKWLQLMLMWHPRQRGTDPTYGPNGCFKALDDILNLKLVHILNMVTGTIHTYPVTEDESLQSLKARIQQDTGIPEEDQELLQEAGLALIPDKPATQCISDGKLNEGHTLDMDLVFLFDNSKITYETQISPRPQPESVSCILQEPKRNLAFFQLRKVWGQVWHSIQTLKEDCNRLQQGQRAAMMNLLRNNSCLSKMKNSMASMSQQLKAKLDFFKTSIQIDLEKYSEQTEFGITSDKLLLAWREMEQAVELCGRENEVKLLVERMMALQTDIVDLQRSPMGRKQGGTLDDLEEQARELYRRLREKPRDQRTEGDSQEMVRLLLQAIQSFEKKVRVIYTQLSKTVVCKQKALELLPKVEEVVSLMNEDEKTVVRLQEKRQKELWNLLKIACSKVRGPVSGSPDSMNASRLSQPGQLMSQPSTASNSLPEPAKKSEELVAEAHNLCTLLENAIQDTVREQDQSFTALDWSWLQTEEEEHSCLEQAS

[2] = target: T1, Flag-EPDR1 (ependymin-related protein 1); experiment: co-IP; HepG2 cells infected with lentivirus carrying Flag-EV or Flag-EPDR1 together with HA-TRIM21; lysates (1% NP-40 IP buffer) immunoprecipitated with anti-Flag, blotted for Flag and HA

Measured: binding

HA-TRIM21 (from UniProt P19474 1-475)
binds: all assays above
